Source: PubChem BioAssay AID652259 (Drosophila RNAi Screening Center, 2013)

Assay: 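Genome-wide hunt for genes that control Wingless pathway activity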 (primary screen)
Cell system: Drosophila clone 8 imaginal disc epithelial cells
Reagents: long dsRNA against Drosophila genes
Treatment: pathway stimulated by co-transfected Wingless expression plasmid
Detection: 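Dual luciferase reads per well after Wingless plasmid stimulation: reporter firefly light and Renilla control light; activity is firefly divided by Renilla, a ratio not deposited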
Scale: firefly reporter light: higher = more Wg reporter light, before normalisation; Renilla control light: higher = more transfected or surviving cells
Call rule: 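a knock-down is a candidate when at least two out of four statistical tests show it departing from its plate mean; one test alone signals a weak candidate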
Calls: active = candidate regulator (raises or lowers reporter); inactive = not a candidate
In all, the deposit lists about 22,000 reagents; shown is an unselected part of those with a known target gene and a result. Over the whole deposit, 233 (1.1%) were called active. 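Light values are raw, unnormalised plate reads; the ratio scores behind the reporter calls were not deposited.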 A number with no mark means an inactive call. Reagents against one gene are numbered here. Names joined by + are all predicted targets of the reagent. The record does not give: the amount of reagent, the time to read-out, the dose of the treatment.

CG44433 #1
- firefly reporter light, replicate 1: 8682
- Renilla control light, replicate 1: 3462

CG44433 #2
- firefly reporter light, replicate 1: 4976
- Renilla control light, replicate 1: 2352

iav (inactive)
- firefly reporter light, replicate 1: 21654
- Renilla control light, replicate 1: 7559

CG1299
- firefly reporter light, replicate 1: 6984
- Renilla control light, replicate 1: 3034

CG7183
- firefly reporter light, replicate 1: 2132
- firefly reporter light, replicate 2: 5898
- Renilla control light, replicate 1: 1112
- Renilla control light, replicate 2: 1586

Wdr37 (WD repeat domain 37)
- firefly reporter light, replicate 1: 2583
- firefly reporter light, replicate 2: 7200
- Renilla control light, replicate 1: 1014
- Renilla control light, replicate 2: 2180

Lcp65Ab2 + Lcp65Ab1 #1
- firefly reporter light, replicate 1: 1409
- firefly reporter light, replicate 2: 9398
- Renilla control light, replicate 1: 1113
- Renilla control light, replicate 2: 3299

Lcp65Ab2 + Lcp65Ab1 #2
- firefly reporter light, replicate 1: 1280
- firefly reporter light, replicate 2: 10742
- Renilla control light, replicate 1: 907
- Renilla control light, replicate 2: 3168

Reformatted: results already given
{"target": "CG1299", "dsRNA no.": 1, "firefly reporter light, replicate 1": 6984, "Renilla control light, replicate 1": 3034}
{"target": "CG7183", "dsRNA no.": 1, "firefly reporter light, replicate 1": 2132, "firefly reporter light, replicate 2": 5898, "Renilla control light, replicate 1": 1112, "Renilla control light, replicate 2": 1586}

Continued:
CG7997
- firefly reporter light, replicate 1: 14393
- Renilla control light, replicate 1: 4441

Ir7b (Ionotropic receptor 7b)
- firefly reporter light, replicate 1: 13099
- Renilla control light, replicate 1: 8547

CG13055
- firefly reporter light, replicate 1: 7495
- Renilla control light, replicate 1: 3590

Dcr-2 (Dicer-2)
- reporter change call, replicate 1: Wg reporter activity raised
- firefly reporter light, replicate 1: 9456
- Renilla control light, replicate 1: 4298
